This is an account of results in publication PMC5829739.

In the data set the test system is PCBP complex (PCBP1/PCBP2, isoform not resolved) (Homo sapiens (K562)). As to the kind of experiment: EMSA. As to conditions: heparin, 10 mM Tris-HCl pH 7.4, 150 mM KCl, 1.5 mM MgCl2, 0.5 mM DTT, room temperature 20 min, 5 ng probe, 30 ug K562 S100 extract, 20 ul, then 1 ul heparin (50 mg/ml) for 10 min, protein in an extract, label: 5'-32P. In general terms: A gel shift assay detects complexes by their altered migration in electrophoresis.

Where [1] appears, read: legend: disrupts PCBP complex formation.

For at least one entry, the source does not settle the construct or the ends of the probe. At least one result comes from cells or an extract, where the contact may be indirect. Negatives hold for the conditions tested. The comparison behind a weaker result is the experiment's own reference, which may not be listed here.

With “ACCCCGCCCCUCCCUAUUCCCGUCCCUCAG [CDK2-WT-5']”, the binding result is listed as “binds”. Same read-out and setting: then “UGUAAGCCCUGUUGUCUUCUUGUUCCCCAG [mCDK2-WT (mWT-5')]”, with “no binding”.

As to “ACUUCGCUUCUGCCUAUUCCCGUCCCUCAG [CDK2-Mut3]”, the binding result under setting [1] is recorded as “binds more weakly”. In the case of “ACUUCGCUUCUGCCUAUUUCCGUUCCUCAG [CDK2-Mut4]”, under setting [1], the binding result is recorded as “binds more weakly”. As to “ACCCUAUAAACCACCCCCCCCCCCCCCCAG [CDK2-13C]”, where the note is “strong complex”, the binding result was “binds”. With “ACUUCGCUUCUGCCUAUUUUUGUUUUUCAG [CDK2-Mut1]”, the binding result is “no binding”.
